Results as given in PubChem BioAssay (Tox21).
All entries are inconclusive by the source's own rule. Clear calls are listed elsewhere. Unless noted, calls follow the shape of the dose curve; as a rule, active = well fitted curve in the direction sought with a large enough effect in the repeat runs; inconclusive = weak or mixed curves; inactive = no such curve, though single readings can be large; an effect the other way counts as inactive or inconclusive. Some results for these compounds are left out of this collection, so the calls shown say nothing about other tests.

Sequences of proteins named here, by UniProt entry; tags and fusion partners are left off.
UniProt P35869, whole entry: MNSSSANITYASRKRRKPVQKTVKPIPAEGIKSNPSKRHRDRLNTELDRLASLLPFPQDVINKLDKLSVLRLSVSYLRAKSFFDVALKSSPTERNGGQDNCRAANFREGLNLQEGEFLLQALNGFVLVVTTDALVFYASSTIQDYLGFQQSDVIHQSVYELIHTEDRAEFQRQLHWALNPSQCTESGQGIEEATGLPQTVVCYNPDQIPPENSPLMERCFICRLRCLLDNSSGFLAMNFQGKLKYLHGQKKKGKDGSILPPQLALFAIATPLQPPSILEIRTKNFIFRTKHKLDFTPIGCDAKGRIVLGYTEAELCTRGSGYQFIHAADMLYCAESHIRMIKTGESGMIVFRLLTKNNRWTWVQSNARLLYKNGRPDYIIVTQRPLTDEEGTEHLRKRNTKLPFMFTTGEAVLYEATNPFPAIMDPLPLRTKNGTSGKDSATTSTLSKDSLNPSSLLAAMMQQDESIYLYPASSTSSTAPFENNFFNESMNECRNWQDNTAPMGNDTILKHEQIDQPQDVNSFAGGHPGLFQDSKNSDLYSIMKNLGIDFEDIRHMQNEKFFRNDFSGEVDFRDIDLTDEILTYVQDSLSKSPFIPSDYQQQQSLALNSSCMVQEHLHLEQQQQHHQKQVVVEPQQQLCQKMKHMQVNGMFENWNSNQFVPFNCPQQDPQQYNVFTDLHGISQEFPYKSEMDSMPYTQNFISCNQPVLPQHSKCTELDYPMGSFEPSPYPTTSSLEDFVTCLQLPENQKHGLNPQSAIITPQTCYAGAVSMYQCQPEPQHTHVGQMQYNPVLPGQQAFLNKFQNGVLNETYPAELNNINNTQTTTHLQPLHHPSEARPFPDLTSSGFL

How the values were obtained:
[1] = qHTS assay for small molecule agonists of the p53 signaling pathway (AID 651631; calls by dose curve; also: nearly all actives have a fitted effect of over 15% in size); conditions: HCT-116 p53RE-bla reporter, beta-lactamase FRET ratio, 16 h; series mostly up to 73.3 µM
Procedure, shortened: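 Agonist mode screen using a stably integrated beta-lactamase gene under p53 response elements in HCT-116 cells. Compound exposure lasts 16 h at 37 °C; fluorescence intensity is measured following 2 h FRET substrate loading.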

[2] = qHTS assay for small molecule disruptors of the mitochondrial membrane potential (AID 720635); conditions: HepG2 mitochondrial membrane potential, Mito-MPS dye ratio; series mostly up to 83.2 µM
Procedure, shortened: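 Mitochondrial membrane potential tracked with Mito-MPS dye, red aggregates (ex 540/em 590 nm) against green monomers (ex 490/em 535 nm). Compound treatment 1 hr at 37C, dye 30 min in HepG2.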

[3] = target: Aryl hydrocarbon receptor (Homo sapiens) (UniProt P35869); assay: qHTS assay to identify small molecule that activate the aryl hydrocarbon receptor (AhR) signaling pathway (AID 743085); conditions: HepG2 AhR-luc (HG2L7.5c1), luciferase, 24 h; also: nearly all actives have a fitted effect of over 15% in size

Measured: Potency
Potency is read from the fitted curve at half-maximal effect.

CN1CCCC(OC(=O)C(O)(c2ccccc2)c2ccccc2)C1 (stereo not drawn)
inconclusive: [1] 2.66 µM | [2] 13.3 µM | [3] 16.8 µM
